Target: the molecule itself
Assay: self-assembly of triple helices, electron microscopy
Protocol: FIG. 4A and FIG. 4B are TEM images of the d-periodic mini-fibrils of Col877. The fibril formation was initiated by transferring Col877 in 5 mM acetic acid (pH 4.5) to TES buffer (pH 7) and incubated for 24 hr at 37° C. The samples were stained with 1% sodium phosphotungstate; magnification factor 10,000; the scale bar is 200 nm. The two images were taken for two different preparations under identical treatments. These figures show Col887 successfully forms fibrils.

B1: peptide Col877 (collagen-mimetic triple helix, three C877-domain units) (peptide)
chain: GPCCGPPGPPGPPGPPGPVGPAGKSGDRGETGPAGPAGPVGPVGARGPAGPQGPRGDKGETGEQGDRGIKGHRGFSGLQGPPGPPGSPGEQGPSGASGPAGPRGPPGSAGAPGKDGLNGLPGPIGPPGPPGPPGPPGPVGPAGKSGDRGETGPAGPAGPVGPVGARGPAGPQGPRGDKGETGEQGDRGIKGHRGFSGLQGPPGPPGSPGEQGPSGASGPAGPRGPPGSAGAPGKDGLNGLPGPIGPPGPPGPPGPPGPVGPAGKSGDRGETGPAGPAGPVGPVGARGPAGPQGPRGDKGETGEQGDRGIKGHRGFSGLQGPPGPPGSPGEQGPSGASGPAGPRGPPGSAGAPGKDGLNGLPGPIGPPGPPGPPGPPGPCCGYIPEAPRDGQAYVRKDGEWVLLSTFL
notes: Designed peptide; Forms a collagen triple helix (trimer) with Cys-knots and foldon; also called Col887
binding result: binds

Source: US20200123231A1 (RESEARCH FOUNDATION OF THE CITY UNIVERSITY OF NEW YORK, published 2020)
